Data as given in PubChem BioAssay AID602196 (INSERM, 2012)
Assay: 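Modifiers of cisplatin sensitivity in A549 cells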. System: human A549 lung cancer cells. Knock-down reagent: siRNA pair against human genes. Time to read-out: 48 h transfection before cisplatin; time from cisplatin to read-out not stated. Treatment: cisplatin at a dose killing half of control-siRNA cells; exact dose and duration not given. Detection: 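Cisplatin cell death as a shift from the 50% death seen with control siRNA; siRNAs toxic or growth-blocking alone scored 0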. Reading the numbers: two-siRNA summed score (-2 to +2): higher = both siRNAs protect from cisplatin killing; -2 means both sensitise; mean protection from cisplatin (shift in death) and protection from cisplatin (shift in death), siRNA C: higher = protection from cisplatin killing. Call rule: 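siRNAs harmful alone (LDH or WST-1) get 0; others get +1 for less and -1 for more cisplatin killing; genes are active when the two siRNAs give the same sign, summing to ±2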. Calls: active = both siRNAs shift cisplatin killing the same way; inactive = no consistent shift, or siRNA harmful alone.
This is an unselected part of about 23,000 reagents. 455 of them (2%) were called active. 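Active includes both protection and sensitisation; some change values fall well beyond the stated -50 to +50 range.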 Reagents against one gene are numbered here. Further read-outs or replicates are left out here. Reagent sequences are not shown. Not stated in the record: the amount of reagent.

two-siRNA summed score (-2 to +2)	mean protection from cisplatin (shift in death) (%)	protection from cisplatin (shift in death), siRNA C (%)	call	gene symbol	reagent
0	6	-5.5	inactive	NEDD1	1
-1	-7.9	-14.9	inactive	EDNRA	1
0	-3.9	-8	inactive	IL1RAPL2	1
1	13.2	10.5	inactive	ACKR3	1
1	11	-1.2	inactive	ABRAXAS2	1
1	10.4	14	inactive	LOC441912	1
0	8.5	-9.6	inactive	TOMM22	1
0	-10.3	-42.6	inactive	NR4A2	1
0	4.5	-3.4	inactive	ZPBP2	1
0	-4.9	1.7	inactive	NME8	1
1	13	23.8	inactive	ZBTB41	1
0	14.5	9.4	inactive	QPRT	1
0	4.5	5.4	inactive	LOC388638	1
0	-2	-12.6	inactive	SLC3A2	1
0	1.5	-8.2	inactive	SLC3A2	2
0	11.2	12	inactive	KIR3DX1	1
0	-4.2	3.6	inactive	NOS3	1
0	-8.1	-5.2	inactive	TMEFF1	1
0	5.2	9.2	inactive	CA13	1
0	-5.4	-9.9	inactive	PRPF6	1
0	4.4	-7.1	inactive	LOC256176	1
1	5.4	14.1	inactive	AGBL4	1
0	15.3	7.6	inactive	LOC441733	1
0	8.4	12.8	inactive	MBNL1-AS1	1
0	4.7	15.2	inactive	NFIL3	1
0	9.9	4.3	inactive	TAF5	1
0	7.8	7.7	inactive	PCBP3	1
0	-1.2	-2.5	inactive	CATSPERT	1
-1	-36.6	-43	inactive	PLTP	1
-1	-15.6	-22.8	inactive	OPRM1	1
1	1.8	-8.3	inactive	ZMAT2	1
0	2.1	1.3	inactive	PTPN4	1
0	5.4	15.5	inactive	CYP1A2	1
-1	-16.9	-26.2	inactive	HSD17B6	1
0	2.5	-3.4	inactive	APH1B	1
-1	14.4	37.7	inactive	CREBL2	1
0	2.1	3	inactive	ZNF341	1
0	5.3	-5	inactive	POLE3	1
0	6.3	12.5	inactive	USP28	1
